The source of these data is the supplement of paper PMC9135407.

In the test the test system is primary human hepatic stellate cells (donor 1). Nature of the test: percent Bodipy-positive cells; higher = more lipid droplet accumulation. The following applies: 48 h. Here is the method:
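Primary lipid accumulation screen in primary human hepatic stellate cell myofibroblasts (donor 1, passage 8) in 384-well plates. 100 nL of library compound was pin-transferred into 30 µL medium in duplicate, and cells were treated for 48 h. The 'Scaled' score combines distance from plate baseline, toxicity and reproducibility penalties, and is normalised to nortriptyline (positive) and DMSO (negative) controls on each plate. A hit is defined as scaled >0.85 or among the top 3 wells per plate.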

Setting [1] is: library stock concentration: 1 mM.
Setting [2] is: library stock concentration: 3.33 mM.
The mark [3] stands for this setting: library stock concentration: 10 mM.
Setting [4] is: library stock concentration: 80 uM.
The mark [5] stands for this setting: library stock concentration: 400 uM.
Setting [6] is: library stock concentration: 2 mM.
[7] abbreviates: library stock concentration: 8.8 mM.

Several values for one entry are separate records, joined by “and”; a condition that tells them apart may be missing. Equal values may be shown once. Where a name gives a salt, the structure may show the parent alone. ± gives the standard deviation of the averaged measurements. The list shows a part of the results. Baselines shift from plate to plate; read single values as rough.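 Assay uses culture-activated primary human stellate myofibroblasts; lipid droplet recovery indicates inactivation. Measured: proportion of Hoechst-counted cells over a plate-specific Bodipy cutoff, duplicate wells, DMSO and nortriptyline as per-plate negative and positive controls. A hit scores, control-normalized, above the plate's top-tenth-percentile nortriptyline wells or ranks among its three best wells. Final well concentrations not reported.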

Regarding `CC(=O)c1ccc2c(c1)N(CCCN(C)C)c1ccccc1S2` [Acepromazine maleate], the “percent Bodipy-positive cells” value (library stock concentration: 4.5 mM) stood at 60.9 ± 3.5%.

As to `COc1cccc(-c2cc(=O)c3ccccc3o2)c1N`, the “percent Bodipy-positive cells” value was 15.5 ± 13% under setting [1]; 12% and 15.2% under setting [2]; 17.7% and 22.3% and 10.9% under setting [3]; 23.4 ± 3.8% (library stock concentration: 18.7 mM).

For `COc1ccc(N(C(=O)Oc2cc(C(=O)Nc3cccc(C(F)(F)F)c3)ccc2C)c2ccnc(Nc3ccc(N4CCN(C)CC4)cc3)n2)c(OC)c1`, the “percent Bodipy-positive cells” value by setting is: under setting [4], 16.9 ± 1.4%; under setting [5], 31.4 ± 1.8%; under setting [6], 49.4 ± 3.7%; under setting [3], 99 ± 1.4%.

As to `CNC(=O)c1cccc(-c2ccc3c(N4CCOC[C@@H]4C)nc(N4CCOC[C@@H]4C)nc3n2)c1`, the “percent Bodipy-positive cells” value runs as follows: under setting [4], 8.89 ± 0.28%; under setting [5], 6.34 ± 0.56%; under setting [6], 4.61 ± 0.99%; under setting [2], 4.99 ± 0.63%; under setting [3], 12.1% and 9.19%.

Take `C=CCNC(N)=S`: the “percent Bodipy-positive cells” value under setting [3] is 35.3 ± 7.9%.

As for `C=CCNC(N)=S` [Allylthiourea], the “percent Bodipy-positive cells” value is 10.1 ± 0.83% under setting [2] and 22.9 ± 11% under setting [3].

Turning to `CN(C)CCOC(C)(c1ccccc1)c1ccccn1` (centres undefined), the “percent Bodipy-positive cells” value under setting [3] was 6.94 ± 1.4%.

As for `CN(C)CCOC(C)(c1ccccc1)c1ccccn1` (centres undefined) [Doxylamine succinate], the “percent Bodipy-positive cells” value worked out at 61.9 ± 30%. The “percent Bodipy-positive cells” value (library stock concentration: 5.1 mM) was found to be 2.29 ± 0.21%.

On to `CN(C)CCOC(C)(c1ccccc1)c1ccccn1` (centres undefined) [Doxylamine Succinate], for which the “percent Bodipy-positive cells” value is, setting by setting: under setting [2], 7.95 ± 3.1%; under setting [3], 43.8 ± 4.8%.

Take `OC(CCCN1CCN(c2ncc(F)cn2)CC1)c1ccc(F)cc1` (centres undefined): the “percent Bodipy-positive cells” value under setting [3] came to 14 ± 4.8%.

Take `COc1cc(/C=C/C(N)=O)cc(OC)c1OC`: the “percent Bodipy-positive cells” value under setting [3] was found to be 44.5 ± 0.7%.

For the compound `O=C1c2ccc(O)c(O)c2C(=O)c2c(O)ccc(O)c21` [Quinalizarin], the “percent Bodipy-positive cells” value under setting [3] came out at 41.9 ± 11%.

In the case of `CCc1cc(Nc2nccc(-c3c(-c4ccc(OC)c(C(=O)Nc5c(F)cccc5F)c4)nc4ccccn34)n2)c(OC)cc1N1CCC(N2CCN(S(C)(=O)=O)CC2)CC1`, the “percent Bodipy-positive cells” value reads like this: under setting [4], 10.5 ± 4.6%; under setting [5], 9.22 ± 3.3%; under setting [6], 7.08 ± 4.1%; under setting [2], 8.05 ± 1.4%; under setting [3], 8.39% and 11.6%.

For the compound `CN(C(=O)C(Cl)Cl)c1ccc(OC(=O)c2ccco2)cc1` [Diloxanide furoate], the “percent Bodipy-positive cells” value worked out at 8.91 ± 0.62%. Also, for the setting “library stock concentration: 6.1 mM”, the “percent Bodipy-positive cells” value was determined as 9.08 ± 6.1%.

Turning to `Nc1ccn([C@H]2CC[C@@H](CO)O2)c(=O)n1`, the “percent Bodipy-positive cells” value under setting [3] was 8.89 ± 1.7%.

For the compound `Nc1ccn([C@H]2CC[C@@H](CO)O2)c(=O)n1` [2',3'-dideoxycytidine], the “percent Bodipy-positive cells” value under setting [3] was 18.3 ± 1.6%.

On to `Nc1ccn([C@H]2CC[C@@H](CO)O2)c(=O)n1` [Zalcitabine], for which the “percent Bodipy-positive cells” value was determined as 9.74 ± 0.11%. Also, the “percent Bodipy-positive cells” value under setting [2] was found to be 13.7 ± 6.9%. The “percent Bodipy-positive cells” value under setting [3] turned out to be 18.1 ± 5.1%.

Turning to `Nc1ccn([C@H]2CC[C@@H](CO)O2)c(=O)n1` [2',3' - dideoxycytidine], the “percent Bodipy-positive cells” value (library stock concentration: 9.5 mM) is 4.81 ± 1.9%.

For `CN1CCC(Nc2ncc3ncnc(Nc4ccc(F)c(Cl)c4)c3n2)CC1.Cl.Cl` [BIBX 1382 dihydrochloride], under setting [3], the “percent Bodipy-positive cells” value was 95.3 ± 0.97%.

`CCCCC[C@@H](O)/C=C/[C@@H]1[C@@H](C/C=C\CCCC(=O)O)[C@@H](O)C[C@H]1O` [15(R)-Prostaglandin F2.alpha.]: the “percent Bodipy-positive cells” value under setting [1] turned out to be 26.2 ± 7.7%.

Consider `COc1ccc(-n2c(SCCCN3C(=O)c4cccc5cccc(c45)C3=O)nnc2-c2ccncc2)cc1`, for which the “percent Bodipy-positive cells” value worked out at 34.5 ± 6.8% under setting [2] and 45.9 ± 4.5% under setting [3].

With `COc1cc2c(Nc3ccc(NC(=O)c4ccccc4)cc3)ncnc2cc1OCCCN1CCOCC1`, the “percent Bodipy-positive cells” value under setting [3] worked out at 98.37 ± 0.33%.

In the case of `CCCN(C/C=C/I)C1CCc2cccc(O)c2C1` (centres undefined) [8-Hydroxy-PIPAT oxalate], the “percent Bodipy-positive cells” value under setting [3] was 39.9 ± 16%.

On to `Cc1cccc(CC(=O)N2CCc3c2ccc(-c2cn(C)c4ncnc(N)c24)c3F)n1`, for which the “percent Bodipy-positive cells” value runs as follows: under setting [2], 9.16 ± 2.8%; under setting [3], 45.1 ± 20%.

For `CCN(CC)CCNC(C(=O)OCCC(C)C)c1ccccc1` (centres undefined), the “percent Bodipy-positive cells” value under setting [3] is 74.9 ± 6.9%.

As to `CCCCC[C@H](O)/C=C/[C@@H]1[C@@H](C/C=C\CCCC(=O)OC(C)C)[C@@H](O)C[C@H]1O` [Prostaglandin F2.alpha. isopropyl ester], under setting [1], the “percent Bodipy-positive cells” value was found to be 10.7 ± 1.1%.

In the case of `C[C@@H]1C[C@H]2[C@@H]3CCC4=CC(=O)C=C[C@]4(C)[C@@]3(F)[C@@H](O)C[C@]2(C)[C@@]1(O)C(=O)COP(=O)(O)O` [Dexamethasone sodium phosphate], under setting [3], the “percent Bodipy-positive cells” value was 10.1 ± 0.31%.

As to `C(=C\c1ccccc1)/CN1CCN(C(c2ccccc2)c2ccccc2)CC1` [Cinnarazine], the “percent Bodipy-positive cells” value by setting is: (library stock concentration: 5.4 mM) 50.1 ± 7.2%; under setting [3], 62.928 ± 0.05%.

Turning to `O=C1O/C(=C/Br)CC[C@@H]1c1cccc2ccccc12` [(R)-Bromoenol lactone], the “percent Bodipy-positive cells” value under setting [1] stood at 20.6 ± 3%.

For `Cc1c(-c2cnccn2)ssc1=S` [Oltipraz], the “percent Bodipy-positive cells” value under setting [7] worked out at 5.74 ± 1%.

In the case of `NO` [Hydroxylamine hydrochloride], under setting [3], the “percent Bodipy-positive cells” value was found to be 37.7 ± 8.9%.

On to `Cc1cc(C)c(S(=O)(=O)Nc2ccccc2C(F)(F)F)c(C)c1`, for which, under setting [3], the “percent Bodipy-positive cells” value amounted to 11.7 ± 3.9%.

For `O=c1[nH]c2ccccc2n1CCCN1CCN(C(c2ccccc2)c2ccccc2)CC1` [Oxatomide], the “percent Bodipy-positive cells” value (library stock concentration: 4.7 mM) was determined as 22.6 ± 0.11%.

Regarding `Nc1nc(Cl)nc2c1ncn2[C@@H]1O[C@H](CO)[C@@H](O)[C@H]1O` [2-Chloroadenosine], under setting [3], the “percent Bodipy-positive cells” value is 85.5 ± 4.5%.

On to `Nc1nc(Cl)nc2c1ncn2[C@@H]1O[C@H](CO)[C@@H](O)[C@H]1O`, for which the “percent Bodipy-positive cells” value under setting [3] amounted to 24.7 ± 4.7%.

On to `O=c1c(O[C@@H]2O[C@H](CO)[C@H](O)[C@H](O)[C@H]2O)c(-c2ccc(O)c(O)c2)oc2cc(O)cc(O)c12`, for which the “percent Bodipy-positive cells” value under setting [7] was 11 ± 2.1%.
